No constants are given. Whether binding was seen depends on the method and setting. Binding seen in cells or lysates may run through a third protein. Some results given as binding are weak or reduced against the parent protein; the word gives no strength. Blank lines part the entries; values can stand above or below the molecule they belong to.
Biological target: unconventional prefoldin RPB5 interactor (URI1) (human (endogenous in A375-P, A2058, SK-MEL-28, UACC-62)) (UniProt O94763)
Test: co-IP; endogenous URI1 immunoprecipitated with anti-URI1 mAb clone 179-2-1 and Protein G Agarose from 900 μg lysate in TNN buffer (250 mM NaCl, 0.5% NP-40), 4 °C, mouse IgG control; immunoblot; A375-P, A2058, SK-MEL-28, UACC-62 cells treated with DMSO, 1 μM PLX4720 (12-48 h), AZD6244, or PLX4720 with Bortezomib

By UniProt entry, the sequences of proteins in these tests, tags left out.
UniProt O94763: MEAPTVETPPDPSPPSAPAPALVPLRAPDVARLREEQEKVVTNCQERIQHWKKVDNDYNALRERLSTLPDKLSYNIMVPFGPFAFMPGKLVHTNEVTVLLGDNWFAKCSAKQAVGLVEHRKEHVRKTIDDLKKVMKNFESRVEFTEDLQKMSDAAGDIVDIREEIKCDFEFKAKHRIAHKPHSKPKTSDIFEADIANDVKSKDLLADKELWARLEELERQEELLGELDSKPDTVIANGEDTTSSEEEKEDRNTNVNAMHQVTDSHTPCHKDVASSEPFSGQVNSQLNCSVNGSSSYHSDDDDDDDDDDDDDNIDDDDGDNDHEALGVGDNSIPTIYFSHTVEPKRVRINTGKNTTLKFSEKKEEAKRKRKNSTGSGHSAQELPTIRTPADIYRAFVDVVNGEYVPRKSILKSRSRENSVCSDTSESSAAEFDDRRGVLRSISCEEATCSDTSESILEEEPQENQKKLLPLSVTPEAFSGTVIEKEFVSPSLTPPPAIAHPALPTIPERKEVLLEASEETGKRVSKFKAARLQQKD
UniProt O95602: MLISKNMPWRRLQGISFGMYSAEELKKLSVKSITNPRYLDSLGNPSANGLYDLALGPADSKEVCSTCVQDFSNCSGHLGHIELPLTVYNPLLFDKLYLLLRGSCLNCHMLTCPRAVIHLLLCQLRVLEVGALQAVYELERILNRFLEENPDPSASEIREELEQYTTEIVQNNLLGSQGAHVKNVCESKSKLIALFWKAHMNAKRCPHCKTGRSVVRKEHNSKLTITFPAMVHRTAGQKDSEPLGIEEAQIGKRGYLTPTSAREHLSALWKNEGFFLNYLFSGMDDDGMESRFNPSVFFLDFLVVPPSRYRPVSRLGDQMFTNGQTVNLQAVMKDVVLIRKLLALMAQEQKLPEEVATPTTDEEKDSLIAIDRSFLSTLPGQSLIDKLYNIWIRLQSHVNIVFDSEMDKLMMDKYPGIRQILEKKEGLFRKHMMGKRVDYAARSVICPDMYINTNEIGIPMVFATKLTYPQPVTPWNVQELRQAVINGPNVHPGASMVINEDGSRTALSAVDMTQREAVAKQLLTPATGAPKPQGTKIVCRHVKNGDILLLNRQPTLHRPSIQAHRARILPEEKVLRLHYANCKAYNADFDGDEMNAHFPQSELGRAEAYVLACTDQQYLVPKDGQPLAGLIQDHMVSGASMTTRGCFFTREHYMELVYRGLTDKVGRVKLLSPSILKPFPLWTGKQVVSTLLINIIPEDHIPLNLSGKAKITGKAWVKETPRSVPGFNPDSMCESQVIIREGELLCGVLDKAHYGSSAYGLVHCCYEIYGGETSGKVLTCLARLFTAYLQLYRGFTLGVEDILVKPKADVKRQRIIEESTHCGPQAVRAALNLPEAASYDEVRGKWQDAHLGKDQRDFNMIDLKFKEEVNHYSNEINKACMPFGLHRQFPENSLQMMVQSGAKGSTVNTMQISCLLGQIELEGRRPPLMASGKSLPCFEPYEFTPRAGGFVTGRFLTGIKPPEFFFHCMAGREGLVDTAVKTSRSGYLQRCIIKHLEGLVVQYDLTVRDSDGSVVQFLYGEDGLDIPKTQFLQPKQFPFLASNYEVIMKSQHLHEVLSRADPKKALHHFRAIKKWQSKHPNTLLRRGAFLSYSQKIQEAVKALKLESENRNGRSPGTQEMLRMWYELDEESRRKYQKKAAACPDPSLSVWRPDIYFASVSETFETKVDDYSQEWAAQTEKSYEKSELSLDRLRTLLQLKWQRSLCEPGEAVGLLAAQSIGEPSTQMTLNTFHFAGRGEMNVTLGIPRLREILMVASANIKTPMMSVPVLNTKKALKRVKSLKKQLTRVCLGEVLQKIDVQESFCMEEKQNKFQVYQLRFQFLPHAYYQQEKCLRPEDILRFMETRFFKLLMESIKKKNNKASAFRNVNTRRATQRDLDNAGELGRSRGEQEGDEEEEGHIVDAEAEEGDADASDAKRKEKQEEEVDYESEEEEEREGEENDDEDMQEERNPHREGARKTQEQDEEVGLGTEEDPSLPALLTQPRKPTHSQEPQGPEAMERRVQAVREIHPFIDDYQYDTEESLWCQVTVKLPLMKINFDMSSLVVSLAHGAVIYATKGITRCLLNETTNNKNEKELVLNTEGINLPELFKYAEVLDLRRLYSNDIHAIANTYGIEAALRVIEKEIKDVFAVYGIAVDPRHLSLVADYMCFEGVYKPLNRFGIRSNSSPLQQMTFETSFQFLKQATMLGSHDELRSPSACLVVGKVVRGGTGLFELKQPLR

binding: binds
Molecule: POLR1A (polymerase RNA I DNA-directed polypeptide A) (from UniProt O95602 1-1720)

binding: binds
B1: POLR3A (polymerase RNA III DNA-directed polypeptide A) (protein, UniProt O14802 1-1390)
chain: MVKEQFRETDVAKKISHICFGMKSPEEMRQQAHIQVVSKNLYSQDNQHAPLLYGVLDHRMGTSEKDRPCETCGKNLADCLGHYGYIDLELPCFHVGYFRAVIGILQMICKTCCHIMLSQEEKKQFLDYLKRPGLTYLQKRGLKKKISDKCRKKNICHHCGAFNGTVKKCGLLKIIHEKYKTNKKVVDPIVSNFLQSFETAIEHNKEVEPLLGRAQENLNPLVVLNLFKRIPAEDVPLLLMNPEAGKPSDLILTRLLVPPLCIRPSVVSDLKSGTNEDDLTMKLTEIIFLNDVIKKHRISGAKTQMIMEDWDFLQLQCALYINSELSGIPLNMAPKKWTRGFVQRLKGKQGRFRGNLSGKRVDFSGRTVISPDPNLRIDEVAVPVHVAKILTFPEKVNKANINFLRKLVQNGPEVHPGANFIQQRHTQMKRFLKYGNREKMAQELKYGDIVERHLIDGDVVLFNRQPSLHKLSIMAHLARVKPHRTFRFNECVCTPYNADFDGDEMNLHLPQTEEAKAEALVLMGTKANLVTPRNGEPLIAAIQDFLTGAYLLTLKDTFFDRAKACQIIASILVGKDEKIKVRLPPPTILKPVTLWTGKQIFSVILRPSDDNPVRANLRTKGKQYCGKGEDLCANDSYVTIQNSELMSGSMDKGTLGSGSKNNIFYILLRDWGQNEAADAMSRLARLAPVYLSNRGFSIGIGDVTPGQGLLKAKYELLNAGYKKCDEYIEALNTGKLQQQPGCTAEETLEALILKELSVIRDHAGSACLRELDKSNSPLTMALCGSKGSFINISQMIACVGQQAISGSRVPDGFENRSLPHFEKHSKLPAAKGFVANSFYSGLTPTEFFFHTMAGREGLVDTAVKTAETGYMQRRLVKSLEDLCSQYDLTVRSSTGDIIQFIYGGDGLDPAAMEGKDEPLEFKRVLDNIKAVFPCPSEPALSKNELILTTESIMKKSEFLCCQDSFLQEIKKFIKGVSEKIKKTRDKYGINDNGTTEPRVLYQLDRITPTQVEKFLETCRDKYMRAQMEPGSAVGALCAQSIGEPGTQMTLKTFHFAGVASMNITLGVPRIKEIINASKAISTPIITAQLDKDDDADYARLVKGRIEKTLLGEISEYIEEVFLPDDCFILVKLSLERIRLLRLEVNAETVRYSICTSKLRVKPGDVAVHGEAVVCVTPRENSKSSMYYVLQFLKEDLPKVVVQGIPEVSRAVIHIDEQSGKEKYKLLVEGDNLRAVMATHGVKGTRTTSNNTYEVEKTLGIEAARTTIINEIQYTMVNHGMSIDRRHVMLLSDLMTYKGEVLGITRFGLAKMKESVLMLASFEKTADHLFDAAYFGQKDSVCGVSECIIMGIPMNIGTGLFKLLHKADRDPNPPKRPLIFDTNEFHIPLVT
